Data source: PubChem BioAssay AID1259254 (NCATS, 2017)

Screen: 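Genome-wide screen for genes that prevent DNA re-replication in cancer cells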 (primary screen)
Cell system: human HCT116 colorectal cancer cells
Knock-down reagent: single siRNA against human genes
Time to read-out: 3 days
Measured: 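Nuclei stained with Hoechst and imaged; cell-cycle phase assigned by DNA content; G2 share scaled per plate, non-targeting siRNA 0%, GMNN siRNA 100%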
Direction: G2 robust z-score: higher = more G2 cells, more excess DNA replication
Active means: 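Active siRNAs have a G2 robust z of 5 or more median absolute deviations over the median, which in these data means about 38% or higher of GMNN control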
Here is an unselected part of about 59,000 deposited reagents. Over the whole deposit, about 1,550 (2.6%) are marked active. 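G2 share is only a proxy for re-replication; each gene was hit by three separate siRNAs, and active genes were retested.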 Entries without a mark were called inactive. The numbers tell different reagents against one gene apart. Not all columns of the deposit are shown. No sequences are given here. The record does not give: the amount of reagent.

G2 robust z-score, by target and reagent
USP18: #1 2.8; #2 -0.344; #3 -0.242
COPZ2: #1 -0.0584; #2 -1.25; #3 -0.889
PMS2P1: #1 1.14; #2 -0.728; #3 -0.226
ZNF100: #1 -0.0417; #2 0.00486; #3 -0.491
RPL13: #1 3.73; #2 1.42; #3 1.98
BRAF: #1 -0.778; #2 0.324; #3 -0.728
RIPPLY3: #1 1.25; #2 0.723; #3 0.0452
KIRREL2: #1 0.628; #2 2.64; #3 0.46
IL17RE: #1 -1.29; #2 -0.0162; #3 -0.725
NUP88: #1 0.299; #2 -0.301; #3 -0.378
TMEM171: #1 0.276; #2 -0.28; #3 -1.25
KCNK7: #1 2.44; #2 1.71; #3 -0.82
AGBL5: #1 1.27; #2 2.98; #3 2.18
ACSM6: #1 -0.306; #2 4.95; #3 3.15
H4C13: #1 -0.169; #2 2.88; #3 0.842
LOC728145 (retired record): #1 0.115; #2 1.04; #3 -0.699
